In article doi:10.1101/2020.04.30.070086 (bioRxiv, 2020):
Substitutions are numbered along the chain they refer to. Numbers in names are those of the source. These are yes or no findings as the source states them, for the method shown. Some binding calls cover weakened binding; strength is not graded here. Sequences can lack the tags named with a protein.

Sequences of proteins named here, by UniProt entry; tags and fusion partners are left off.
UniProt Q922U2: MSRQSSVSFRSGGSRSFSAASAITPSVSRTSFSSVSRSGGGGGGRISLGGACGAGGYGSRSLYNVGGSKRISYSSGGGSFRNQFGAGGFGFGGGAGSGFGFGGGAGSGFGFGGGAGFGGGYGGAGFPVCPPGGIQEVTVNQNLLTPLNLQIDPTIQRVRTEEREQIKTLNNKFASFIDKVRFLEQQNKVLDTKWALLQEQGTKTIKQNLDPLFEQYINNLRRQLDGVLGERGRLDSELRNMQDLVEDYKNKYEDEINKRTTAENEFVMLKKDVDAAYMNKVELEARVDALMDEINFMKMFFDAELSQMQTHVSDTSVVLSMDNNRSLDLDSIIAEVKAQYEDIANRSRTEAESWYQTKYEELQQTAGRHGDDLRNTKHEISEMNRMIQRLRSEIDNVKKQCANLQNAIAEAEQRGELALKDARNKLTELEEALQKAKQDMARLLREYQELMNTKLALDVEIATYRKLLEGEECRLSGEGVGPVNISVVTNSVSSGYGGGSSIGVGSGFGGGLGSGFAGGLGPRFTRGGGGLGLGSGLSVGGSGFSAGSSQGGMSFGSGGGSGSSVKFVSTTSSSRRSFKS

T1: GST-Ndel1, full length (FL) (UniProt Q9ERR1)
T1 sequence: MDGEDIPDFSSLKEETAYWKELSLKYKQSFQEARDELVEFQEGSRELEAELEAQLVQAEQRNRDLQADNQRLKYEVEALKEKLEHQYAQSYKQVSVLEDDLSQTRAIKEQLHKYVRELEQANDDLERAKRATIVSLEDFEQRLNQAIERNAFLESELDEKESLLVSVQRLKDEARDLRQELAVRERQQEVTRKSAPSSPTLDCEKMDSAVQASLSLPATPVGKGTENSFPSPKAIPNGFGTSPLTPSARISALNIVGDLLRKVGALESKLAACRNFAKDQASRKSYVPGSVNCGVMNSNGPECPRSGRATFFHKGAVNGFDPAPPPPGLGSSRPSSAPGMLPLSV

T2: GST-Nde1 (UniProt Q9CZA6)
T2 sequence: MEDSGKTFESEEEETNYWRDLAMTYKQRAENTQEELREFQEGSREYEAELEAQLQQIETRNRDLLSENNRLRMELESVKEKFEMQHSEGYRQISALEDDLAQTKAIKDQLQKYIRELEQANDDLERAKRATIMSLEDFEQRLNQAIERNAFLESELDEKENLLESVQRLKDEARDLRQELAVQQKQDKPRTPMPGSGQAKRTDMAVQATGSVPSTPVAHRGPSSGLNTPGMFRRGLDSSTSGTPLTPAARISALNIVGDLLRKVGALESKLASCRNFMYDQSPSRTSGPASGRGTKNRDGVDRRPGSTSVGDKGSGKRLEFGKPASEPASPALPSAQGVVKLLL

B1: keratin 10 (K10), full length (natural protein, UniProt P02535-2 1-561, looked up)
chain: MSVLYSSSSKQFSSSRSGGGGGGGSVRVSSTRGSLGGGYSSGGFSGGSFSRGSSGGGCFGGSSGGYGGFGGGGSFGGGYGGSSFGGGYGGSSFGGGSFGGGGSFGGGSFGGGSYGGGFGGGGFGGDGGSLLSGNEKVTMQNLNDRLASYMDKVRALEESNYELEGKIKEWYEKHGNSSQREPRDYSKYYKTIEDLKGQILTLTTDNANVLLQIDNARLAADDFRLKYENEVTLRQSVEADINGLRRVLDELTLSKSDLEMQIESLNEELAYLKKNHEEEMRDLQNVSTGDVNVEMNAAPGVDLTQLLNNMRNQYEQLAEKNRKDAEEWFNQKSKELTTEIDSNIEQMSSHKSEITELRRTVQGLEIELQSQLALKQSLEASLAETEGRYCVQLSQIQSQISALEEQLQQIRAETECQNAEYQQLLDIKTRLENEIQTYRSLLEGEGSSSGGGGGRRGGSGGGSYGGSSGGGSYGGSSGGGGSYGGSSGGGGSYGGGSSGGGSHGGSSGGGYGGGSSSGGAGGHGGSSGGGYGGGSSSGGQGGSGGFKSSGGGDQSSKGPRY
B2: headless K1 and K10 (K1 amino acids 185-637 and K10 amino acids 129-561), allowed to interact (complex, UniProt P04104 185-637; P02535-2 129-561)
chain 1: KSQEREQIKSLNDKFASFIDKVRFLEQQNQVLQTKWELLQQVDTTTRTQNLDPFFENYISILRRKVDSLKSDQSRMDSELKNMQDLVEEYRTKYEDEINKRTNAENEFVTIKKDVDSAYMTKVELQAKADALQQDIDFFSALYQMEMSQMQTQISETNVVLSMDNNRSLDLDGIISEVKAQYDSICQRSKAEAETFYQSKYEELQITAGKHGDSVRNTKMEISELNRMIQRLRSEIDGCKKQISQIQQNINDAEQRGEKALKDAQNKLNEIEDALSQCKEDLARLLRDFQELMNTKLALDMEIATYKKLLEGEEIRMSGECTPNVSVSVSTSHTSMSGSSSRGGGSGGGRYGGGGSYGGGSGGGSYGGSSGGGGSGGSYGGGSGGGSYGGGSGGGSSGSHRGGSGGGGGSSGGSYGGSSGGGRGGSSSGGGGVKSSGSSTVKFVSTSYSRGTK
chain 2: SLLSGNEKVTMQNLNDRLASYMDKVRALEESNYELEGKIKEWYEKHGNSSQREPRDYSKYYKTIEDLKGQILTLTTDNANVLLQIDNARLAADDFRLKYENEVTLRQSVEADINGLRRVLDELTLSKSDLEMQIESLNEELAYLKKNHEEEMRDLQNVSTGDVNVEMNAAPGVDLTQLLNNMRNQYEQLAEKNRKDAEEWFNQKSKELTTEIDSNIEQMSSHKSEITELRRTVQGLEIELQSQLALKQSLEASLAETEGRYCVQLSQIQSQISALEEQLQQIRAETECQNAEYQQLLDIKTRLENEIQTYRSLLEGEGSSSGGGGGRRGGSGGGSYGGSSGGGSYGGSSGGGGSYGGSSGGGGSYGGGSSGGGSHGGSSGGGYGGGSSSGGAGGHGGSSGGGYGGGSSSGGQGGSGGFKSSGGGDQSSKGPRY
B3: keratin 10(L442A), full length point mutant (protein, UniProt P02535-2 1-561)
chain: B1 chain with L442A
B4: keratin 1 (K1) (protein, UniProt P04104 1-637)
chain: MSLQCSSRSLCRGGGGSRNFSSGSAGLVSFQRRSTSSSMRRSGGGGGGRFSGGGFCGSSGSGFGSKSLMNLGGGRSISKSVAGGGGSFCGGFGGGSYGGGGFGGGSYGGGGFGGGSFGGGGFGGSGFGGGLGGGGGFGSGGGFGGGRFGSMGPVCPPGGIQEVTINQSLLQPLNVEVDPQIQKVKSQEREQIKSLNDKFASFIDKVRFLEQQNQVLQTKWELLQQVDTTTRTQNLDPFFENYISILRRKVDSLKSDQSRMDSELKNMQDLVEEYRTKYEDEINKRTNAENEFVTIKKDVDSAYMTKVELQAKADALQQDIDFFSALYQMEMSQMQTQISETNVVLSMDNNRSLDLDGIISEVKAQYDSICQRSKAEAETFYQSKYEELQITAGKHGDSVRNTKMEISELNRMIQRLRSEIDGCKKQISQIQQNINDAEQRGEKALKDAQNKLNEIEDALSQCKEDLARLLRDFQELMNTKLALDMEIATYKKLLEGEEIRMSGECTPNVSVSVSTSHTSMSGSSSRGGGSGGGRYGGGGSYGGGSGGGSYGGSSGGGGSGGSYGGGSGGGSYGGGSGGGSSGSHRGGSGGGGGSSGGSYGGSSGGGRGGSSSGGGGVKSSGSSTVKFVSTSYSRGTK

These molecules were tested against T1, GST-Ndel1, full length (FL) (assay: pull-down).
With B1 the binding was “binds”.
B2 was tested, and the binding was “binds”.
For B3, the binding was “no binding”.

What follows are molecules tested against T2, GST-Nde1 (assay: pull-down).
For “keratin 5 (K5) (from UniProt Q922U2 1-580)”, the binding was “binds”.
For B1, the binding was “binds”.
With B4 the binding was “binds”.
